According to publication PMC7819943, “Rice protein-binding microarrays: a tool to detect cis-acting elements near promoter regions in rice”:
Some of the results follow.

What follows are sequences tested against T1, OsSMF1 (Oryza sativa, UniProt Q6ZLB0 1-436) (assay: protein-binding microarray (RPBM); PBS, 2% BSA, 51.3 ng/ul salmon testes DNA, 50 uM zinc acetate, 200 nM TF, 25 C, 1 h; high values mean tight binding). Settings: protein: recombinant; tags: N-terminal polyhistidine and DsRed monomer fusion (pET32a); chain copies: 2; label: CyDye5-dUTP incorporated in the synthesized complementary strand; 3' TTTTT single-stranded linker to array surface; dsDNA, one strand shown.
T1 sequence: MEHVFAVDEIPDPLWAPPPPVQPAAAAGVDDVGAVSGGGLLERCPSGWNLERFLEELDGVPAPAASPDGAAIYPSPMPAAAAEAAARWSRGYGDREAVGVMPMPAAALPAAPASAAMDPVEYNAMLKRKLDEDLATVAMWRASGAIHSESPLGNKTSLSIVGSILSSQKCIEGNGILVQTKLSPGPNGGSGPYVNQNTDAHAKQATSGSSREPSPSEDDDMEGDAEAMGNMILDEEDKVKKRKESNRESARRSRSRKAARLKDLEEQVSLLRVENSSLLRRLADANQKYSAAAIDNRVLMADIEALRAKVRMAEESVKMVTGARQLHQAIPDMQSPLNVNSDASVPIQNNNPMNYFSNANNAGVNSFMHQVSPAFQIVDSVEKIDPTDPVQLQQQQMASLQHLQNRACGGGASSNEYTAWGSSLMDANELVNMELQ
Outline: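 Binding signal here means per-feature fluorescence intensity in arbitrary units. The values were read on an Axon 4000B scanner after a custom Agilent array, double-stranded by primer extension with Cy5-dUTP, was incubated with 200 nM protein at 25 °C for 1 h in PBS with 2% BSA, salmon testes DNA and 50 µM zinc acetate, then washed. The proteins were transcription factors with an N-terminal polyhistidine tag and DsRed, expressed in E. coli BL21-CodonPlus and purified on Ni–NTA.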

Sequence	binding signal
TGCCGCCTCCACGTCCTCATTGCTGTCTCCACTCTACTGTCGGAGTCACCTAGTGCAG	19200 fluorescence intensity (a.u.)
GCAGAGCTCGACCTCGTGTGTTGTCTCCCATTGCTTGGTTCGGAGTCACCTAGTGCAG	3670 fluorescence intensity (a.u.)
CGTGCTTGTCATGCACGACGTAGTACATGTACATGCCATGCGGAGTCACCTAGTGCAG	4250 fluorescence intensity (a.u.)
ATTAATTAGTGACAGGGAGTAGCAGGGGAAAACCAACCATCGGAGTCACCTAGTGCAG	3320 fluorescence intensity (a.u.)
GCATAGTGGAAGATCAGTTCGATCAAGATTCAGAGCTTCACGGAGTCACCTAGTGCAG	3790 fluorescence intensity (a.u.)
CTATAATTTCTGGTTACGGTGGTGACAAGTCATGTGGGCTCGGAGTCACCTAGTGCAG	4260 fluorescence intensity (a.u.)
ACAAGTGGACTCAATGCGCCACGTCGGATGAAATTGGGAGCGGAGTCACCTAGTGCAG	9390 fluorescence intensity (a.u.)
ACATGTACAGCTCAACAGGAATGTCACGTACTCACTCAGCCGGAGTCACCTAGTGCAG	3700 fluorescence intensity (a.u.)
CATAAGCGCCACGTTAACTCCACGTGGACCGAAGACTGAGCGGAGTCACCTAGTGCAG	14400 fluorescence intensity (a.u.)
CATACCGTGTGCGTGGCTGAGTCAATAGCAATCAAGACGGCGGAGTCACCTAGTGCAG	4700 fluorescence intensity (a.u.)
AGATAGTGACACCGTGTGACTAAGTAAAGTGACAGACATGCGGAGTCACCTAGTGCAG	4070 fluorescence intensity (a.u.)
CCCATCACCAGCAAAGCTTAGCTGTTGGTTACCCACCTTCCGGAGTCACCTAGTGCAG	3390 fluorescence intensity (a.u.)
AGTTGATCTGGTGCAGATCTTGTGTCACCATATTACACCACGGAGTCACCTAGTGCAG	3550 fluorescence intensity (a.u.)
GCGCGCACAAACAAATGTATCACCAGTAGTAGTACAACCACGGAGTCACCTAGTGCAG	3980 fluorescence intensity (a.u.)
TATGGAGTGAAATGTCAGACTCCAAATGACTTATATGATGCGGAGTCACCTAGTGCAG	64100 fluorescence intensity (a.u.)
TTGATGATGTGAAGTTTATGAAAACTGTGTCTAGTGTCATCGGAGTCACCTAGTGCAG	26900 fluorescence intensity (a.u.)
CCTACACTGAAGTTAAGCAGATCTTCCAGGCCTCGTGTTTCGGAGTCACCTAGTGCAG	43800 fluorescence intensity (a.u.)
AGCTGACCGCGCGACCGCCACTACCTCCTCGTCATTTCCCCGGAGTCACCTAGTGCAG	4800 fluorescence intensity (a.u.)
ACTTACCACGGATTCCTCCACGACACTAATCCCAACCAGACGGAGTCACCTAGTGCAG	3220 fluorescence intensity (a.u.)
TGCATTGCATTTGCACTGTCATTTCCTTCCTTTCAGTTTTCGGAGTCACCTAGTGCAG	36600 fluorescence intensity (a.u.)
GGCCTCGGCTTCTCTTCTAAAACCCCACCTCGCCTCGCGTCGGAGTCACCTAGTGCAG	21000 fluorescence intensity (a.u.)

Three records picked at random from the list so far, as already listed:
Sequence	binding signal
CCTACACTGAAGTTAAGCAGATCTTCCAGGCCTCGTGTTTCGGAGTCACCTAGTGCAG	43800 fluorescence intensity (a.u.)
GCGCGCACAAACAAATGTATCACCAGTAGTAGTACAACCACGGAGTCACCTAGTGCAG	3980 fluorescence intensity (a.u.)
TGCCGCCTCCACGTCCTCATTGCTGTCTCCACTCTACTGTCGGAGTCACCTAGTGCAG	19200 fluorescence intensity (a.u.)

Continuation.

Sequence	binding signal
CAGGAGGTGGAGAAGAAGACGTCGGCGTGGAGCGGCGGCGCGGAGTCACCTAGTGCAG	4640 fluorescence intensity (a.u.)
AGAGTCGCCGCCACGATGACACACACGCCACGCGCCCCGACGGAGTCACCTAGTGCAG	4440 fluorescence intensity (a.u.)
TCGTGTAGTTCTTTGCTCCATCAGAGGATATGTTCATATTCGGAGTCACCTAGTGCAG	3280 fluorescence intensity (a.u.)
TTGATAAGCTATATAGTGGTCAGCGAGTCCTATTGCGTAGCGGAGTCACCTAGTGCAG	4010 fluorescence intensity (a.u.)
AAAATAAAATAAAATACTTGTATCATGTCATGACAGCATTCGGAGTCACCTAGTGCAG	4190 fluorescence intensity (a.u.)
AGCTTCATCTGCAATCCTCCGCTGATCTCTCCCTGTCCGGCGGAGTCACCTAGTGCAG	3940 fluorescence intensity (a.u.)
AAATATAATATATGACTGGATGTGACACATCCTAGTACAACGGAGTCACCTAGTGCAG	5840 fluorescence intensity (a.u.)
AGTTGCTTACTCACATAATTGTTTTAAATCAAGGTACTTCCGGAGTCACCTAGTGCAG	4720 fluorescence intensity (a.u.)
ATATTATTGCCGATCTAGAAAATCGACATATCTCTTGTTACGGAGTCACCTAGTGCAG	3380 fluorescence intensity (a.u.)
TATTGCAAAATTTAAAATTATGATGTTATTTTAATATATTCGGAGTCACCTAGTGCAG	3320 fluorescence intensity (a.u.)
CGAGAGAACATTCCGTATCGCGCACTAGTAAAGAGTGGGTCGGAGTCACCTAGTGCAG	28100 fluorescence intensity (a.u.)
TTCGGCTTGGTTAGTTCATGTCAGCAATTTGGGCCCAGAACGGAGTCACCTAGTGCAG	3180 fluorescence intensity (a.u.)
TTTCTACTGCCACGTAGGTGCCAAGTCAATGCCACGTGTTCGGAGTCACCTAGTGCAG	31500 fluorescence intensity (a.u.)
CGAGTCCCGCATGCGCCCCACGCGGCGGCTCCAGCACCCGCGGAGTCACCTAGTGCAG	3650 fluorescence intensity (a.u.)
GTTATATAGGACTGTAAGTTTAGTAATTACACATGTAAGTCGGAGTCACCTAGTGCAG	24600 fluorescence intensity (a.u.)
CAGCAAGCCGATAGCGCCACGCCACGCTAAGCTCGCCGCCCGGAGTCACCTAGTGCAG	5560 fluorescence intensity (a.u.)
ATGTGTTTGTCAACCGAGTAGAAACCGACACGTTTCGCGACGGAGTCACCTAGTGCAG	3890 fluorescence intensity (a.u.)
TCCAAAATTCCATTAAATCAGGTGAATGACTAAAGTGTAACGGAGTCACCTAGTGCAG	3290 fluorescence intensity (a.u.)
CAGGGAGCATTGAGATTCACTTTGTCACGATGGTAATATACGGAGTCACCTAGTGCAG	22600 fluorescence intensity (a.u.)
AACCAACCACGATGACAATCCCATATCAACCCTCCCAACACGGAGTCACCTAGTGCAG	3530 fluorescence intensity (a.u.)
CGCAGCCCGAGCCCGCCGTATTCCACGTCGACGCTGTCGTCGGAGTCACCTAGTGCAG	5720 fluorescence intensity (a.u.)
